Sequences of proteins named here, by UniProt entry; tags and fusion partners are left off.
UniProt Q96SW2, whole entry: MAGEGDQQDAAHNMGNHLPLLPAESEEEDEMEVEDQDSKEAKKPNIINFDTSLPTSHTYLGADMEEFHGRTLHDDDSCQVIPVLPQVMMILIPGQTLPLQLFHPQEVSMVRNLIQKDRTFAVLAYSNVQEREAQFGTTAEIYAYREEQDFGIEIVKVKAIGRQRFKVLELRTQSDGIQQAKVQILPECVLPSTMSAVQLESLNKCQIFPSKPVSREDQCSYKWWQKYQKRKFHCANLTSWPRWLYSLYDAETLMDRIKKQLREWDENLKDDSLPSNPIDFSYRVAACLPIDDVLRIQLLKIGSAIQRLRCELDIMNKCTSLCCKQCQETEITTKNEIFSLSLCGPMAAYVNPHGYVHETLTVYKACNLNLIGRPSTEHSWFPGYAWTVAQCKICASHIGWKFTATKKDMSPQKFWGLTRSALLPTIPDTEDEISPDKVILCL
UniProt P17931, whole entry: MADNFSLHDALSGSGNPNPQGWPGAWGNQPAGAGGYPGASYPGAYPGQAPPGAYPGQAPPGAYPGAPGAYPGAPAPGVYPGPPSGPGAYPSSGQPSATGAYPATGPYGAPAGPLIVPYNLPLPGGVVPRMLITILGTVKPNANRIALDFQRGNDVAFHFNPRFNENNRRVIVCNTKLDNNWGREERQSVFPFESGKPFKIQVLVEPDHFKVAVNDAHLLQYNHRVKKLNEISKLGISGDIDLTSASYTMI

In US12291522B2, “Galectin-3 inhibitors” (BRISTOL-MYERS SQUIBB COMPANY, priority 2020, dated 2025):

What was measured:
[1] = target: hCRBN (NanoLuc-CRBN fusion construct in HEK-293 cells) (Homo sapiens, UniProt Q96SW2); assay: CRBN BRET Target Engagement; conditions: read-out: hCRBN IC50; NanoLuc-CRBN transfected HEK-293 cells, BRET with CRBN Probe
Protocol: CRBN BRET Target Engagement (hCRBN IC50 (μM))
NanoLuc-CRBN fusion construct was transfected in HEK-293 cells using FuGENE HD (Promega) according to the manufacturer's protocol. In brief, Nluc-CRBN was diluted into Transfection Carrier DNA (Promega) 1:10 (mass/mass), to which FuGENE HD was 1:3 (μg DNA:μL FuGENE HD). One part (vol) of DNA:FuGENE HD complexes were combined with 20 parts (vol) of HEK-293 cells suspended at a density of […]. Cells were incubated for ˜20 hr at 37° C./5% CO2. Following transfection, cells were washed and resuspended at 200,000 cells/mL in OptiMEM without phenol red (Gibco).
For BRET measurements, cells were seeded in a 384-well nonbinding surface plate (Corning) plate for a final count of 10,000 cells/well. Compounds were dissolved at 10 mM in dimethylsulfoxide (DMSO) and evaluated at eleven concentrations using a high concentration of […]. CRBN Probe was used for equilibrium measurements, employing a final concentration of approximately EC50-80. For live-cell measurements, 20 nM of CRBN Probe was added. For the live-cell assay conditions, the plates were incubated for 2 hours at 37° C./5% CO2. […] For all BRET experiments, the Envision 2015 (Perkin Elmer) equipped with a BRET2 Enh mirror, BRET 647 nM/75 nM Bandwidth and BC703 460 nM/80 nM Bandwidth filters was used for readouts. Each read was integrated for 0.5 s. […]

[2] = target: His-tagged recombinant human Gal-3 (hGal-3) (Homo sapiens, UniProt P17931); assay: Gal-3 HTRF assay (His-tagged hGal-3 / B-ASF); conditions: read-out: hGal-3 IC50, 15 nM hGal-3, 15 nM B-ASF
Protocol: ASSAY BUFFER Composition: 25 mM HEPES, 100 mM NaCl, 0.005% Tween 20, 0.05% BSA prepared in sterile water (all reagents from Sigma).
• Positive Control: 100% DMSO (1 μL)+His-tagged hGal-3 (20 μL)+B-ASF (20 μL)+Anti-His Terbium Antibody (5 μL)+Strep d2 Antibody (5 μL). • Negative Control: 100% DMSO (1 μL)+His-tagged hGal-3 (20 μL)+Anti His Terbium Antibody (5 μL)+Strep d2 Aantibody (5 μL). Stocks Preparation:
PROTOCOL: The Gal-3 assays were performed in 384 white Opti plates in three replicates at room temperature with gentle shaking at 250-300 rpmFrom the original stocks, […] working stock concentrations of His-tagged recombinant human Gal-3 (hGal-3) and that of B-ASF were prepared. From the working stock, 20 μL of hGal-3 (15 nM) and 20 μL B-ASF (15 nM) were added to the plates. In Negative Control, only hGal-3 was added. A concentration range of 50× working stocks were prepared for the compounds in 100% DMSO. Aliquots of luL of the compounds were added to the wells and pre-incubated with 20 μL hGal-3 per well for 30 minutes Then 20 μL B-ASF wereadded and incubated for another 1 hour. […] The assay signal was detected using HTRF screen protocol (Excitation wavelength=340 nm, emission wavelength=615 nm/665 nm) on Envision 2104 Multilabel Reader. Data analysed using Toolset and Curve Master. […]

Question: Which results are given for `Cc1nc([C@@H]2O[C@H](CO)[C@H](O)[C@H](n3cc(-c4cc(F)c(Cl)c(F)c4)nn3)[C@H]2OCCOc2ccc(C(=O)Nc3ccc4c(c3)CN(C3CCC(=O)NC3=O)C4=O)nc2)n(-c2cc(Cl)ccc2C(F)(F)F)n1` (some centres unmarked)?
Answer: IC50 [1]: 214 nM; IC50 [2]: 74 nM

The structures given here were assigned with low confidence; some may be wrong.
